# Data as given in the supplement of paper PMC10077471.
# The full ranking holds about 1,900 compounds; the median of “excess over highest single agent (ExcessHSA) synergy score, 6x6 matrix” is about -83, and the lowest 2% start at about -370. Some of the results follow.
# Test system: NCI-H446
# Experiment: excess over highest single agent (ExcessHSA) synergy score, 6x6 matrix; higher = less synergy (more negative = stronger synergy)
# Settings: 72 h; CellTiter-Glo viability
row,SMILES,excess over highest single agent
1,c1cc(-c2cnn3cc(-c4ccc(OCCN5CCCCC5)cc4)cnc23)ccn1 + Cc1sc2c(c1C)C(c1ccc(Cl)cc1)=N[C@@H](CC(=O)OC(C)(C)C)c1nnc(C)n1-2 [NCGC00250412-19],148
2,COc1ncc(-c2ccc3nccc(-c4ccnnc4)c3c2)cc1NS(=O)(=O)c1ccc(F)cc1F + Cc1sc2c(c1C)C(c1ccc(Cl)cc1)=N[C@@H](CC(=O)OC(C)(C)C)c1nnc(C)n1-2 [NCGC00250412-19],-259
3,CCc1cc(-c2n[nH]c(C)c2-c2ccc3c(c2)OCCO3)c(O)cc1O + Cc1sc2c(c1C)C(c1ccc(Cl)cc1)=N[C@@H](CC(=O)OC(C)(C)C)c1nnc(C)n1-2 [NCGC00250412-19],-215
4,CN1CCC(=C2c3ccccc3CCc3sccc32)CC1 + Cc1sc2c(c1C)C(c1ccc(Cl)cc1)=N[C@@H](CC(=O)OC(C)(C)C)c1nnc(C)n1-2 [NCGC00250412-19],-177
5,CCN(CC)CCOc1ccc(C(=C(Cl)c2ccccc2)c2ccccc2)cc1 + Cc1sc2c(c1C)C(c1ccc(Cl)cc1)=N[C@@H](CC(=O)OC(C)(C)C)c1nnc(C)n1-2 [NCGC00250412-19],-103
6,COc1ccc2cc(-c3nc(-c4ccc([S+](C)[O-])cc4)[nH]c3-c3ccncc3)ccc2c1 (centres undefined) + Cc1sc2c(c1C)C(c1ccc(Cl)cc1)=N[C@@H](CC(=O)OC(C)(C)C)c1nnc(C)n1-2 [NCGC00250412-19],-100
7,CCCCCOC(=O)Nc1nc(=O)n([C@@H]2O[C@H](C)[C@@H](O)[C@H]2O)cc1F + Cc1sc2c(c1C)C(c1ccc(Cl)cc1)=N[C@@H](CC(=O)OC(C)(C)C)c1nnc(C)n1-2 [NCGC00250412-19],3.95
8,CC(C)=CCC/C(C)=C/CC/C(C)=C/CSc1ccccc1C(=O)O + Cc1sc2c(c1C)C(c1ccc(Cl)cc1)=N[C@@H](CC(=O)OC(C)(C)C)c1nnc(C)n1-2 [NCGC00250412-19],93.2
9,Cc1cnc(Nc2ccc(F)cc2Cl)nc1-c1c[nH]c(C(=O)N[C@H](CO)c2cccc(Cl)c2)c1 + Cc1sc2c(c1C)C(c1ccc(Cl)cc1)=N[C@@H](CC(=O)OC(C)(C)C)c1nnc(C)n1-2 [NCGC00250412-19],35.4
10,Cc1cccc2c1CC[C@H](CN1CCC(c3c(Cl)cccc3Cl)CC1)C[C@@H]2O + Cc1sc2c(c1C)C(c1ccc(Cl)cc1)=N[C@@H](CC(=O)OC(C)(C)C)c1nnc(C)n1-2 [NCGC00250412-19],-49.6
11,O=C1CCc2ccc(OCCCCN3CCN(c4cccc(Cl)c4Cl)CC3)cc2N1 + Cc1sc2c(c1C)C(c1ccc(Cl)cc1)=N[C@@H](CC(=O)OC(C)(C)C)c1nnc(C)n1-2 [NCGC00250412-19],-98.6
12,Cc1ccc(S(=O)(=O)Nc2cc(Cl)ccc2C(=O)Nc2nc(-c3ccccc3)cs2)cc1 + Cc1sc2c(c1C)C(c1ccc(Cl)cc1)=N[C@@H](CC(=O)OC(C)(C)C)c1nnc(C)n1-2 [NCGC00250412-19],214
13,CCCCCCCCCCCC1=C(O)C(=O)C=C(O)C1=O + Cc1sc2c(c1C)C(c1ccc(Cl)cc1)=N[C@@H](CC(=O)OC(C)(C)C)c1nnc(C)n1-2 [NCGC00250412-19],-98.3
14,NCCCC(N)(C(=O)O)C(F)F (centres undefined) + Cc1sc2c(c1C)C(c1ccc(Cl)cc1)=N[C@@H](CC(=O)OC(C)(C)C)c1nnc(C)n1-2 [NCGC00250412-19],-46.7
15,c1ccc(CCCN2CCN(CCOC(c3ccccc3)c3ccccc3)CC2)cc1 + Cc1sc2c(c1C)C(c1ccc(Cl)cc1)=N[C@@H](CC(=O)OC(C)(C)C)c1nnc(C)n1-2 [NCGC00250412-19],-22.1
16,Cc1ccccc1C(OCCN(C)C)c1ccccc1 (centres undefined) + Cc1sc2c(c1C)C(c1ccc(Cl)cc1)=N[C@@H](CC(=O)OC(C)(C)C)c1nnc(C)n1-2 [NCGC00250412-19],-47.4
17,CN1[C@@H]2CC[C@H]1C[C@@H](OC(=O)C(CO)c1ccccc1)C2 (some centres undefined) + Cc1sc2c(c1C)C(c1ccc(Cl)cc1)=N[C@@H](CC(=O)OC(C)(C)C)c1nnc(C)n1-2 [NCGC00250412-19],-105
18,Cc1cncc2cccc(S(=O)(=O)N3CCCN(C(=O)CN)C[C@@H]3C)c12 + Cc1sc2c(c1C)C(c1ccc(Cl)cc1)=N[C@@H](CC(=O)OC(C)(C)C)c1nnc(C)n1-2 [NCGC00250412-19],-137
19,Cc1cc(Nc2cc(N3CCN(C)CC3)nc(/C=C/c3ccccc3)n2)n[nH]1 + Cc1sc2c(c1C)C(c1ccc(Cl)cc1)=N[C@@H](CC(=O)OC(C)(C)C)c1nnc(C)n1-2 [NCGC00250412-19],-138
20,COCCOc1ccc2c(c1)ncn2-c1ccc2cccc(N3CCC(N)CC3)c2n1 + Cc1sc2c(c1C)C(c1ccc(Cl)cc1)=N[C@@H](CC(=O)OC(C)(C)C)c1nnc(C)n1-2 [NCGC00250412-19],94.4

row,SMILES,excess over highest single agent
1,Cc1cc(-c2ccc(CC(=O)Nc3ccc(-c4cccnc4)cc3)cc2)ccn1 + Cc1sc2c(c1C)C(c1ccc(Cl)cc1)=N[C@@H](CC(=O)OC(C)(C)C)c1nnc(C)n1-2 [NCGC00250412-19],106
2,COc1ccc(C2CC(c3ccccc3)=NN2c2ccc(S(N)(=O)=O)cc2)cc1 (centres undefined) + Cc1sc2c(c1C)C(c1ccc(Cl)cc1)=N[C@@H](CC(=O)OC(C)(C)C)c1nnc(C)n1-2 [NCGC00250412-19],33.3
3,C[C@]12CCC(=O)C=C1CC[C@@H]1[C@@H]2CC[C@@]2(C)[C@H]1CC[C@]2(C)O + Cc1sc2c(c1C)C(c1ccc(Cl)cc1)=N[C@@H](CC(=O)OC(C)(C)C)c1nnc(C)n1-2 [NCGC00250412-19],-111
4,Oc1cc(O)c(Cl)cn1 + Cc1sc2c(c1C)C(c1ccc(Cl)cc1)=N[C@@H](CC(=O)OC(C)(C)C)c1nnc(C)n1-2 [NCGC00250412-19],-59.4
5,O=c1[nH]nc(OCCCc2ccc(Cl)cc2)c(NCc2cccnc2)c1Br + Cc1sc2c(c1C)C(c1ccc(Cl)cc1)=N[C@@H](CC(=O)OC(C)(C)C)c1nnc(C)n1-2 [NCGC00250412-19],-40.7
6,CC1(C)CNc2cc(NC(=O)c3cccnc3NCc3ccncc3)ccc21 + Cc1sc2c(c1C)C(c1ccc(Cl)cc1)=N[C@@H](CC(=O)OC(C)(C)C)c1nnc(C)n1-2 [NCGC00250412-19],-165
7,Cn1cc(-c2[nH]c3cc(NC(=O)[C@H](N)C4CCCCC4)cc4c3c2C=NNC4=O)cn1 + Cc1sc2c(c1C)C(c1ccc(Cl)cc1)=N[C@@H](CC(=O)OC(C)(C)C)c1nnc(C)n1-2 [NCGC00250412-19],16.8
8,COC(=O)[C@]12CCC(C)(C)C[C@H]1[C@H]1C(=O)C=C3[C@@]4(C)C=C(C#N)C(=O)C(C)(C)[C@@H]4CC[C@@]3(C)[C@]1(C)CC2 + Cc1sc2c(c1C)C(c1ccc(Cl)cc1)=N[C@@H](CC(=O)OC(C)(C)C)c1nnc(C)n1-2 [NCGC00250412-19],-219
9,CCCCC[C@H](O)/C=C/[C@H]1[C@H](O)CC(=O)[C@@H]1CCCCCCC(=O)O + Cc1sc2c(c1C)C(c1ccc(Cl)cc1)=N[C@@H](CC(=O)OC(C)(C)C)c1nnc(C)n1-2 [NCGC00250412-19],-120
10,CC[C@@H]([C@H](C)O)n1ncn(-c2ccc(N3CCN(c4ccc(OC[C@@H]5CO[C@@](Cn6cncn6)(c6ccc(F)cc6F)C5)cc4)CC3)cc2)c1=O + Cc1sc2c(c1C)C(c1ccc(Cl)cc1)=N[C@@H](CC(=O)OC(C)(C)C)c1nnc(C)n1-2 [NCGC00250412-19],-10.1
11,CN1CCC[C@@H]1CCO[C@](C)(c1ccccc1)c1ccc(Cl)cc1 + Cc1sc2c(c1C)C(c1ccc(Cl)cc1)=N[C@@H](CC(=O)OC(C)(C)C)c1nnc(C)n1-2 [NCGC00250412-19],-191
12,COc1cc2ncnc(Nc3ccc(F)c(Cl)c3)c2cc1OCCCN1CCOCC1 + Cc1sc2c(c1C)C(c1ccc(Cl)cc1)=N[C@@H](CC(=O)OC(C)(C)C)c1nnc(C)n1-2 [NCGC00250412-19],-96.6
13,C[C@]12CCC(=O)C(O)=C1CC[C@@H]1[C@@H]2CC[C@]2(C)C(=O)CC[C@@H]12 + Cc1sc2c(c1C)C(c1ccc(Cl)cc1)=N[C@@H](CC(=O)OC(C)(C)C)c1nnc(C)n1-2 [NCGC00250412-19],-209
14,C=C(c1ccc(C(=O)O)cc1)c1cc2c(cc1C)C(C)(C)CCC2(C)C + Cc1sc2c(c1C)C(c1ccc(Cl)cc1)=N[C@@H](CC(=O)OC(C)(C)C)c1nnc(C)n1-2 [NCGC00250412-19],-177
15,CC[N+](CC)(CC)CCOc1cccc(OCC[N+](CC)(CC)CC)c1OCC[N+](CC)(CC)CC + Cc1sc2c(c1C)C(c1ccc(Cl)cc1)=N[C@@H](CC(=O)OC(C)(C)C)c1nnc(C)n1-2 [NCGC00250412-19],-41.8
16,O=c1[nH]nc(Sc2ncc([N+](=O)[O-])s2)n1-c1ccc2c(c1)OCCO2 + Cc1sc2c(c1C)C(c1ccc(Cl)cc1)=N[C@@H](CC(=O)OC(C)(C)C)c1nnc(C)n1-2 [NCGC00250412-19],-126
17,CC/C(=C(\c1ccccc1)c1ccc(OCCN(C)C)cc1)c1ccccc1 + Cc1sc2c(c1C)C(c1ccc(Cl)cc1)=N[C@@H](CC(=O)OC(C)(C)C)c1nnc(C)n1-2 [NCGC00250412-19],-272
18,Cc1nn(Cc2ccccc2Cl)c(C)c1CN(C)CC(O)COc1ccc(Cl)cc1 (centres undefined) + Cc1sc2c(c1C)C(c1ccc(Cl)cc1)=N[C@@H](CC(=O)OC(C)(C)C)c1nnc(C)n1-2 [NCGC00250412-19],-95.8
19,O=c1c(O)c(-c2ccc(O)c(O)c2)oc2cc(O)cc(O)c12 + Cc1sc2c(c1C)C(c1ccc(Cl)cc1)=N[C@@H](CC(=O)OC(C)(C)C)c1nnc(C)n1-2 [NCGC00250412-19],-264

# Fetched one by one from the entries so far:
row,SMILES,excess over highest single agent
7,CCCCCOC(=O)Nc1nc(=O)n([C@@H]2O[C@H](C)[C@@H](O)[C@H]2O)cc1F + Cc1sc2c(c1C)C(c1ccc(Cl)cc1)=N[C@@H](CC(=O)OC(C)(C)C)c1nnc(C)n1-2 [NCGC00250412-19],3.95
17,CN1[C@@H]2CC[C@H]1C[C@@H](OC(=O)C(CO)c1ccccc1)C2 (some centres undefined) + Cc1sc2c(c1C)C(c1ccc(Cl)cc1)=N[C@@H](CC(=O)OC(C)(C)C)c1nnc(C)n1-2 [NCGC00250412-19],-105
17,CC/C(=C(\c1ccccc1)c1ccc(OCCN(C)C)cc1)c1ccccc1 + Cc1sc2c(c1C)C(c1ccc(Cl)cc1)=N[C@@H](CC(=O)OC(C)(C)C)c1nnc(C)n1-2 [NCGC00250412-19],-272
